In PMC6643034:

Assays:
[1] = molecular target: T1, P1126_AMBCA (Amblyomma cajennense); test: BLI; cross-binding screen on OctetRed; evasin held on a nickel-coated biosensor through its C-terminal His tag; each human chemokine at 300 nM; both purified
T1 sequence: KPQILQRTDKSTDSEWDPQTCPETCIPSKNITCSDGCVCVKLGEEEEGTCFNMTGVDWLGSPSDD

[2] = molecular target: T2, P1172_IXORI (Ixodes ricinus) (UniProt V5I2G9); test: as above
T2 sequence: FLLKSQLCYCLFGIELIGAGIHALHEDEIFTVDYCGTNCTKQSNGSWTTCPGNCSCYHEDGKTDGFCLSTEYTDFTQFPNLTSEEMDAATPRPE

[3] = molecular target: T3, EVA3_RHISA (Rhipicephalus sanguineus) (UniProt P0C8E8); test: as above
T3 sequence: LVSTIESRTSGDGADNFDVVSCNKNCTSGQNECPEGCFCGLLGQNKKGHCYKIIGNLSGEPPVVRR

[4] = molecular target: T4, P1142_AMBCA (Amblyomma cajennense); test: as above
T4 sequence: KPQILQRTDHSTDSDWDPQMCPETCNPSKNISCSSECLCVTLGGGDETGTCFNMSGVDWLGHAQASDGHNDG

[5] = molecular target: T5, Evasin 3 (EVA3) (Rhipicephalus sanguineus) (UniProt P0C8E8); test: BLI; OctetRed; evasin held on a nickel-coated biosensor by its C-terminal His tag; cross-binding screen of a panel of human chemokines at 300 nM; both purified
T5 sequence (chain, glycosylated (periodic acid–Schiff staining)): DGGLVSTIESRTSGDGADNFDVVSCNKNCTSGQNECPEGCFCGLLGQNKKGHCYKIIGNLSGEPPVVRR

Substance	binding [1]	binding [2]	binding [3]	binding [4]	binding [5]
CXCL6 (human) (ligand)	binds	no binding (tested: 300 nM)	–	–	–
CXCL8 (human) (ligand)	no binding (tested: 300 nM)	binds	–	–	–
CCL15 (human) (ligand)	no binding (tested: 300 nM)	no binding (tested: 300 nM)	no binding (tested: 300 nM)	no binding (tested: 300 nM)	–
CXCL7 (human) (ligand)	binds	no binding (tested: 300 nM)	no binding (tested: 300 nM)	binds	–
CCL14 (human) (ligand)	no binding (tested: 300 nM)	no binding (tested: 300 nM)	no binding (tested: 300 nM)	no binding (tested: 300 nM)	–
CXCL4 (human) (ligand)	binds	no binding (tested: 300 nM)	no binding (tested: 300 nM)	binds	no binding (tested: 300 nM)
CCL23 (human) (ligand)	no binding (tested: 300 nM)	no binding (tested: 300 nM)	no binding (tested: 300 nM)	no binding (tested: 300 nM)	–

These are yes or no findings as the source states them, for the method shown. For some of these results: Binding calls can cover weak binding; strength is not graded here. For some of these results: Sequences can lack the tags named with a protein.
